Laboratory results taken from publication doi:10.1101/2023.08.13.546412 (bioRxiv, 2023).
Results are given in words; binding and its absence hold for the method and conditions named. Binding seen in cells or lysates may run through a third protein. Some entries that bind do so weakly or less than the wild type. Tags and fused reporters may be left off the sequences shown.

Amino acid sequences for entries named in this document (tags omitted).
UniProt Q39012: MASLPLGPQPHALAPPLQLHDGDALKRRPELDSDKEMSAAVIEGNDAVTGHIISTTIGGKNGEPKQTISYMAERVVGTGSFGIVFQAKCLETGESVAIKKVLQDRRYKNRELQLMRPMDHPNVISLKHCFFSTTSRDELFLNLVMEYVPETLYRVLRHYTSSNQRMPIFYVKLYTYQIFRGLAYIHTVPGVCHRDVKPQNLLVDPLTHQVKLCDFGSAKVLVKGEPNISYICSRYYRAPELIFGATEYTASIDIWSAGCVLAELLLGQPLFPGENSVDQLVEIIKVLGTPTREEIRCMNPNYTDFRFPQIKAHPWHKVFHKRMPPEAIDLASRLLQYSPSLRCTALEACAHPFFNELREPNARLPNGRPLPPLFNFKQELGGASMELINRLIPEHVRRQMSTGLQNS

T1: WOX5-YFPN (WUSCHEL-RELATED HOMEOBOX 5 fused to the N-terminal half of YFP) (Arabidopsis thaliana) (UniProt Q8H1D2)
T1 sequence: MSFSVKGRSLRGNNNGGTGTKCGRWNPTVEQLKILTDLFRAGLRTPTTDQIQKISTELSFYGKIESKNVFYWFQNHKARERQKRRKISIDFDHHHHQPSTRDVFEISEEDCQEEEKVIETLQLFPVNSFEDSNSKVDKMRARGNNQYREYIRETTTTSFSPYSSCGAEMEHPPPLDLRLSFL

B1: AtSK23-YFPC (enzyme, UniProt Q39010 1-412)
chain: MTSIPLGPPQPPSLAPQPPHLHGGDSLKRRPDIDNDKEMSAAVIEGNDAVTGHIISTTIGGKNGEPKQTISYMAERVVGTGSFGIVFQAKCLETGESVAIKKVLQDRRYKNRELQLMRLMDHPNVVSLKHCFFSTTTRDELFLNLVMEYVPETLYRVLKHYTSSNQRMPIFYVKLYTYQIFRGLAYIHTAPGVCHRDVKPQNLLVDPLTHQCKLCDFGSAKVLVKGEANISYICSRYYRAPELIFGATEYTSSIDIWSAGCVLAELLLGQPLFPGENSVDQLVEIIKVLGTPTREEIRCMNPNYTDFRFPQIKAHPWHKVFHKRMPPEAIDLASRLLQYSPSLRCTALEACAHPFFNELREPNARLPNGRPLPPLFNFKQELSGASPELINRLIPEHVRRQMNGGFPFQAGP

Biological target: T1, WOX5-YFPN (WUSCHEL-RELATED HOMEOBOX 5 fused to the N-terminal half of YFP) (Arabidopsis thaliana)
Assay: split reporter

| Molecule | binding |
| --- | --- |
| AtSK22-YFPC (from UniProt Q39012 1-407) (enzyme) | binds |
| B1 | binds |
